Assay results published in PubChem BioAssay AID588590 (National Center for Advancing Translational Sciences (NCATS), 2011).
Among all 390,000 compounds or so, about 4,000 (1%) were called active. This list was built around the results that the source calls inconclusive (neither active nor inactive); the mix of calls is not that of the screen. Calls follow the shape of the dose curve; as a rule, active = well fitted inhibition curve with a large enough effect; inconclusive = small, poorly fitted or top-dose-only effect, or another doubt; inactive = no such curve, though single readings can be large or run the other way. Potencies beside an inconclusive call are fits to weak or partial responses and may not hold up.

By UniProt entry, the sequences of proteins in these tests, tags left out. Where a name states a change or a piece, a line headed by the entry shows the natural chain unless it says otherwise.
UniProt Q9UNA4: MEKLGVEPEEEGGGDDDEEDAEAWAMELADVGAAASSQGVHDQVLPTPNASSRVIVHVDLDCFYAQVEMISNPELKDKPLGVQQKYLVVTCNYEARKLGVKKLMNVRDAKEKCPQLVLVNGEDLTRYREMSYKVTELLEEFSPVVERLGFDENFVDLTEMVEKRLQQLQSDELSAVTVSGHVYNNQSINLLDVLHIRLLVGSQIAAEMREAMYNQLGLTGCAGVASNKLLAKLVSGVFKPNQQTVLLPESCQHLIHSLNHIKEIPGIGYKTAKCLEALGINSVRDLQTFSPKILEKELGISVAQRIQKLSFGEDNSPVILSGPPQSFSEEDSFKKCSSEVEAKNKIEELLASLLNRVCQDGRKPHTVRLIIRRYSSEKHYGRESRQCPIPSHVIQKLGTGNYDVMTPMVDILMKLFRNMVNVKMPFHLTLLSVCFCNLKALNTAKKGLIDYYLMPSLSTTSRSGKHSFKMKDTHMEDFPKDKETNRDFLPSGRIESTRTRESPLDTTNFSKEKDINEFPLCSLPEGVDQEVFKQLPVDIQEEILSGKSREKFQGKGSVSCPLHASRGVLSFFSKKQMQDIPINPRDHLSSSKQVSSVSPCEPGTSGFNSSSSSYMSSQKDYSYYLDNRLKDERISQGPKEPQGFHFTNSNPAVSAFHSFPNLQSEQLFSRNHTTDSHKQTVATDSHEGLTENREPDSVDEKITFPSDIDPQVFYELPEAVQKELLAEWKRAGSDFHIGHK

biological target: DNA polymerase iota (Homo sapiens) (UniProt Q9UNA4); assay: qHTS for Inhibitors of Polymerase Iota; settings: Pol iota fluorescent replication assay, 10 min; series mostly up to 115 µM; activity, negative = inhibition: at the top concentration
Outline: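 Fluorescent replication assay read twice, at 0 min and 10 min after adding 50 nM (final) substrate. Enzyme (10 nM) and compounds were first incubated 15 min at room temperature; enzyme-free buffer wells were negative controls.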
Potency is read from the fitted curve at half-maximal effect.

SMILES	Potency	activity, negative = inhibition
COC(=O)c1sccc1NC(=O)c1cc(OC)cc(OC)c1	inconclusive: 14.1 µM [inhibitor, full curve, poor fit]	
Nc1cccc2cccnc12	inconclusive: 89.1 µM [inhibitor, single point]	
C=CCn1c(Cn2nnc3ccccc32)nnc1SCC(=O)N/N=C/c1cc(Br)cc(OC)c1O	inconclusive: 15.8 µM [inhibitor, full curve, poor fit]	
COc1ccc(CCNC(=O)CSc2nnnn2-c2ccccc2OC)cc1OC	inconclusive: 56.2 µM [inhibitor, partial curve, poor fit]	
Cc1nn(-c2ccccc2)c(C)c1/C=C/C(=O)OCC(=O)Nc1ncc(Cl)cc1Cl	inconclusive: 56.2 µM [inhibitor, partial curve]	
COC(=O)C1=C[C@@H](C(=O)OC)[C@@H]2C3=C(C(=O)[C@@]2(C)NC(=O)c2ccccc2)[C@H](C)[C@@H]2C(=O)N(Cc4ccccc4)C(=O)[C@@H]2[C@@H]3C1		inactive: 19.3%
CCOC(=O)c1ccccc1NS(=O)(=O)c1ccc(N2CCCCS2(=O)=O)cc1	inconclusive: 70.8 µM [inhibitor, partial curve, poor fit]	
CCN(CC(=O)Nc1c(F)cccc1F)C(=O)CCSc1ccc(F)cc1	inconclusive: 89.1 µM [inhibitor, single point]	
Cc1cc(F)ccc1-n1nnc(C(N)=O)c1C		inactive: 31%
Cc1ccc(-c2csc(NC(=O)c3ccc(Br)cc3)c2C(=O)O)cc1		inactive: 24.1%
CN(Cc1ccccc1)c1ccc(-c2nc(-c3ccco3)no2)cc1[N+](=O)[O-]		inactive: 0.623%
Cc1ccc(Nc2ccc([N+](=O)[O-])nc2[N+](=O)[O-])cc1	inconclusive: 100 µM [inhibitor, partial curve, poor fit]	
O=C(Nc1cc(C(=O)N2CCCC2)ccc1N1CCCC1)c1ccccc1F		inactive: 27.7%
COc1ccc(-n2nc(C(=O)Nc3ccc(Cl)cn3)c3c4ccccc4n(C)c3c2=O)cc1Cl	inconclusive: 56.2 µM [inhibitor, partial curve, poor fit]	
O=C1/C(=C\c2c(NCCOCCO)nc3ccccn3c2=O)SC(=S)N1Cc1ccco1	inconclusive: 22.4 µM [inhibitor, partial curve, poor fit]	
CCOC(=O)c1ccc(NC(=O)c2cccc3c2C(=O)N(CC2CCCO2)C3)cc1 (stereo not drawn)	inconclusive: 89.1 µM [inhibitor, single point]	
COc1ccccc1OCC(=O)Nc1ccc(S(=O)(=O)NC(C)=O)cc1	inconclusive: 79.4 µM [inhibitor, partial curve, poor fit]	
O=C(O)CNS(=O)(=O)c1ccc2c3c(cccc13)C(=O)N2	inconclusive: 15.8 µM [inhibitor, full curve]	
O=C(CSc1ccccc1)NCc1ccc2c(c1)CCN2C(=O)c1ccc(Cl)cc1		inactive: -27.4%

A second format for 2 compounds above.
C=CCn1c(Cn2nnc3ccccc32)nnc1SCC(=O)N/N=C/c1cc(Br)cc(OC)c1O
  Potency: inconclusive: 15.8 µM [inhibitor, full curve, poor fit]
COc1ccc(CCNC(=O)CSc2nnnn2-c2ccccc2OC)cc1OC
  Potency: inconclusive: 56.2 µM [inhibitor, partial curve, poor fit]

Continuation:

SMILES	Potency	activity, negative = inhibition
COc1ccc([C@H]2C(C(=O)O)=C[C@@H](C(C)(C)C)N2S(=O)(=O)c2ccccc2)cc1	inconclusive: 39.8 µM [inhibitor, partial curve]	
Cc1ccc(N(C)S(=O)(=O)c2ccc3[nH]c4c(c3c2)CCCC4)cc1		inactive: -2.76%
CC(NC(=O)c1ccc(NC(=O)c2nsc3ccccc23)cc1)c1ccccc1 (stereo not drawn)		inactive: -0.793%
Cc1ccc(C(=O)Nc2ccccc2C(=O)O)cc1S(=O)(=O)NC1CCCCC1	inconclusive: 79.4 µM [inhibitor, single point]	
O=C(NC1CCCCC1)N1CCSC1=Nc1ccccc1	inconclusive: 35.5 µM [inhibitor, single point]	
Cc1cc(C)nc(N(C#N)S(=O)(=O)c2ccccc2Cl)n1	inconclusive: 25.1 µM [inhibitor, single point]	
COc1cc(/C=C2\SC(=O)N(Cc3ccc(Cl)cc3)C2=O)cc([N+](=O)[O-])c1O	inconclusive: 28.2 µM [inhibitor, partial curve, poor fit]	
CN1/C(=C\P(=O)(N(C)C)N(C)C)C(C)(C)c2ccccc21	inconclusive: 17.8 µM [inhibitor, full curve, poor fit]	
O=C(NCc1ccccc1)C1=C[C@H](c2ccc3c(c2)OCO3)C[C@H](OCc2ccc(CO)cc2)O1	inconclusive: 20 µM [inhibitor, full curve, poor fit]	
COc1ccc(C(NC(=O)/C=C\c2ccco2)c2ccc(OC)c(OC)c2)cc1 (stereo not drawn)	inconclusive: 31.6 µM [inhibitor, partial curve, poor fit]	
CN(C(=O)c1ccc(NC(=O)Cc2ccc(NC(=O)C3CCN(C(=O)C4CC4)CC3)cc2)cc1)C1CCCC1	inconclusive: 100 µM [inhibitor, partial curve, poor fit]	
CCc1ccc(OCC(=O)NC(C)C)cc1		inactive: 30.8%
CCc1ccc(NC(=O)C2CCC(CNS(=O)(=O)c3ccc4c(c3)CC(C)N4C(C)=O)CC2)cc1 (stereo not drawn)	inconclusive: 79.4 µM [inhibitor, partial curve]	
CC(=O)c1c(CC(=O)O)[nH]n(-c2nc3ccccc3s2)c1=O	inconclusive: 20 µM [inhibitor, full curve]	
NC(=O)C(CC(=O)O)NC(=O)[C@@H]1CCCNc2c(I)cc([N+](=O)[O-])cc2C(=O)N[C@@H](CO)C(=O)N[C@@H](Cc2ccc(O)cc2)C(=O)N1 (stereo partly drawn)	inconclusive: 44.7 µM [inhibitor, partial curve, poor fit]	
CCCN1C(=O)c2[nH]nc(-c3ccccc3O)c2C1c1ccc(OCc2ccccc2)c(OCC)c1 (stereo not drawn)		inactive: 12.7%
O=C(CSC1CS(=O)(=O)c2cc([N+](=O)[O-])ccc21)NNC(=O)c1ccccc1 (stereo not drawn)	inconclusive: 25.1 µM [inhibitor, partial curve, poor fit]	
Cc1cc[n+](-c2nc3ccccc3nc2C(=C=[N-])C#N)cc1	inconclusive: 11.2 µM [inhibitor, partial curve, poor fit]	
Cc1cc(C)cc(C(=O)NCC(=O)OCC(=O)NCc2ccco2)c1	inconclusive: 25.1 µM [inhibitor, single point]	
